Results published in publication PMC6048100.
No constants are given. Whether binding was seen depends on the method and setting. In cells and extracts the contact can be indirect. These calls come from enrichment with a bait or labelling near it, and not all partners need be listed. Tags and fused reporters may be left off the sequences shown.

By UniProt entry, the sequences of proteins in these tests, tags left out.
UniProt P40763: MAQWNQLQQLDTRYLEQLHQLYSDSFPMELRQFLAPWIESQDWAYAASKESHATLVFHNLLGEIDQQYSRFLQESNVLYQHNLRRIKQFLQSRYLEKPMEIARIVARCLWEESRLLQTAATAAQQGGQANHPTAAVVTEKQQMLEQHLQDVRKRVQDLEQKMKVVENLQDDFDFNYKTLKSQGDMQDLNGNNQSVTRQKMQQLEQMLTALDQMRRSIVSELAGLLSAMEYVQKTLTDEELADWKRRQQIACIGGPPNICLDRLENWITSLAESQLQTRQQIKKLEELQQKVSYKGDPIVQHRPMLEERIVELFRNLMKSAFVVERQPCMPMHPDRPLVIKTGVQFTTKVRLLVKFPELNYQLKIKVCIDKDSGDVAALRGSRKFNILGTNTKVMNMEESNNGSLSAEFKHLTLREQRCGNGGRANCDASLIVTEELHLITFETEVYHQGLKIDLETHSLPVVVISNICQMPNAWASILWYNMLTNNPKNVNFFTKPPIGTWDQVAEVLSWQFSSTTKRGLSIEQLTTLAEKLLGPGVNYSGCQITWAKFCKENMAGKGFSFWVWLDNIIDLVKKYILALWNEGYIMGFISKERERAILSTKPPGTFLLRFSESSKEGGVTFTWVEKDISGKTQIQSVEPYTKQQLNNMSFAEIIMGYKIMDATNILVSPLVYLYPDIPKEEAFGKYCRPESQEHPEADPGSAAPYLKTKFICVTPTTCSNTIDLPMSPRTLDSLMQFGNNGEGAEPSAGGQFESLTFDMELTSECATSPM

Target: T1, Act1-Flag (UniProt Q8N7N6)
T1 sequence: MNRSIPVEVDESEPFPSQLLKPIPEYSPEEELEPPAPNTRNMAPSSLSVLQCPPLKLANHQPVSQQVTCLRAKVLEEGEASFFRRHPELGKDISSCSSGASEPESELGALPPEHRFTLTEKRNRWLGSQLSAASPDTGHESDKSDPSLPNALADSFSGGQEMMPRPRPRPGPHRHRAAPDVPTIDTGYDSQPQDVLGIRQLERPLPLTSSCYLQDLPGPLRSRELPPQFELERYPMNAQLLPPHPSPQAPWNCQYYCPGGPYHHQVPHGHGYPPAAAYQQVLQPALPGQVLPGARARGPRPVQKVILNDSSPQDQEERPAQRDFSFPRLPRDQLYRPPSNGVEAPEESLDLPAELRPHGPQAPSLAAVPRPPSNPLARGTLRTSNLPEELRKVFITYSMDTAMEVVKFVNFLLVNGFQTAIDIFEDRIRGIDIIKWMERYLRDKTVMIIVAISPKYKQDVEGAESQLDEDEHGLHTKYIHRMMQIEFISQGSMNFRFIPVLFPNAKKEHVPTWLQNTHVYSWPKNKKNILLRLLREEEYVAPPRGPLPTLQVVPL
Assay: affinity purification with mass spectrometry; immunoprecipitation via anti-Flag beads from lysates of HeLa cells transiently transfected to express Act1-Flag

For STAT3 (from UniProt P40763 1-770), the binding was “binds”.
